From PMC10681728, “Rad53 regulates the lifetime of Rdh54 at homologous recombination intermediates” (Nucleic Acids Research, 2023)
Results are given in words; binding and its absence hold for the method and conditions named. Binding seen in cells or lysates may run through a third protein. A result given as binding can be weak or reduced; the word gives no strength.

Sequences of proteins named here, by UniProt entry; tags and fusion partners are left off. A change or cut given only in a name is not applied to a line headed by its entry.
UniProt P22216: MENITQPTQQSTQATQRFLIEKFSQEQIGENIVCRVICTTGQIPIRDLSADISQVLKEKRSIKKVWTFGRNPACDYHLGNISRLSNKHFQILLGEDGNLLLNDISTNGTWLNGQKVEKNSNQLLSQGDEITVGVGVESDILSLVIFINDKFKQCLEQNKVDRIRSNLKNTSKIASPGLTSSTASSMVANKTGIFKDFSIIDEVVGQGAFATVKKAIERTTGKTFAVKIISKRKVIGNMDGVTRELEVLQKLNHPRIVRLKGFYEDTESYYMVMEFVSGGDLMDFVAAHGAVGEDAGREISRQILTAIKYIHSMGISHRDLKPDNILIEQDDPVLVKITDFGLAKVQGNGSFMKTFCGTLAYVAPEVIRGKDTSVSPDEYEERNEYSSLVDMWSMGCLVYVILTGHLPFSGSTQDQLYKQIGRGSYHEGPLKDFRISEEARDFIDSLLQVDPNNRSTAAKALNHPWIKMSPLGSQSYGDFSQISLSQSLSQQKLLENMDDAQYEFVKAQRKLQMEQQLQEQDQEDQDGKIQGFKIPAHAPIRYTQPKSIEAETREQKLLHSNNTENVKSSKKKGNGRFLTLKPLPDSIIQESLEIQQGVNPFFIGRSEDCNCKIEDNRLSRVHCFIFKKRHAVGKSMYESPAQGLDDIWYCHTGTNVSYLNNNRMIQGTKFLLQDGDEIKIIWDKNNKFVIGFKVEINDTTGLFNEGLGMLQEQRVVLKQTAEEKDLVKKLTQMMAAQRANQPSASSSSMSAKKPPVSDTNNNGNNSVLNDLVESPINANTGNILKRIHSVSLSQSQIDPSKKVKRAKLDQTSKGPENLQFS
UniProt P38086: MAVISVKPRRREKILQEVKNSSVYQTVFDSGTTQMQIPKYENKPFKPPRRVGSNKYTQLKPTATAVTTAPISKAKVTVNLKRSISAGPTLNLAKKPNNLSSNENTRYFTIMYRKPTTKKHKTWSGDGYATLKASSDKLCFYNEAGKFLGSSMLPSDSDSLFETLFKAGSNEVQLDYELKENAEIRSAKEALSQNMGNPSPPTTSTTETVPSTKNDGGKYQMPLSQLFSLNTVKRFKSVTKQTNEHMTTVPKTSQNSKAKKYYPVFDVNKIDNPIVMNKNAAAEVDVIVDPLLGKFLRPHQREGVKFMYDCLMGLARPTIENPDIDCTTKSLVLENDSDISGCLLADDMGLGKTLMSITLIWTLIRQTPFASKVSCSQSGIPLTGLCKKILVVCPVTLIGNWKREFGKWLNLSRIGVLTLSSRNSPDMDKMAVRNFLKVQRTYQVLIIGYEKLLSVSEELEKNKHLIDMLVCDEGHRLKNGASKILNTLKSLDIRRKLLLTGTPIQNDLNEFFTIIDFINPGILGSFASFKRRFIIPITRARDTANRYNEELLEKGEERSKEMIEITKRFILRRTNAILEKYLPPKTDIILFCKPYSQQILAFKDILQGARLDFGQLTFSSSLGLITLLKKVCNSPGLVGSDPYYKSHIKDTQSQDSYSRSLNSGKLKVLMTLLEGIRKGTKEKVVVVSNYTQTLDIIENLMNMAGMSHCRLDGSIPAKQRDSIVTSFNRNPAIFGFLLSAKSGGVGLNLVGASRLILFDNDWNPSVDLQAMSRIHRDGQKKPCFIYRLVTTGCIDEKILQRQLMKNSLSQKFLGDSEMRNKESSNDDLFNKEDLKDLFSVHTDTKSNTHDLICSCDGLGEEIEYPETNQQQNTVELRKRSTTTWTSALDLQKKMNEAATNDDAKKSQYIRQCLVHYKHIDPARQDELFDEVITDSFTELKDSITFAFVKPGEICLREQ

Target: Rad53 (S. cerevisiae (endogenous in yeast)) (UniProt P22216)
Test: co-IP; yeast whole cell extract (300 mM NaCl lysis, 500 mM NaCl washes), anti-RAD53 on Dynabeads Protein G overnight at 4°C, blot with anti-HA; cells with 2% galactose (HO break induced) or 2% dextrose for 2 h

Q: With “Rdh54 (HA-tagged, in yeast) (from UniProt P38086)” as the substance, how does the binding read?
A: The binding was “binds”.
